Source: patent US20030044809A1, “Nucleic acid binding of multi-zinc finger transcription factors” (published 2003)

Experiments:
Experiment in all cases: EMSA
[1] = target: T1, SIP1 full size (SIP1FS) (mouse) (UniProt Q9R0G7); details: protein in a lysate after overexpression, protein details: N-terminal (Myc)6, pCS3, COS1 extract, label: 32P
T1 sequence (looked up): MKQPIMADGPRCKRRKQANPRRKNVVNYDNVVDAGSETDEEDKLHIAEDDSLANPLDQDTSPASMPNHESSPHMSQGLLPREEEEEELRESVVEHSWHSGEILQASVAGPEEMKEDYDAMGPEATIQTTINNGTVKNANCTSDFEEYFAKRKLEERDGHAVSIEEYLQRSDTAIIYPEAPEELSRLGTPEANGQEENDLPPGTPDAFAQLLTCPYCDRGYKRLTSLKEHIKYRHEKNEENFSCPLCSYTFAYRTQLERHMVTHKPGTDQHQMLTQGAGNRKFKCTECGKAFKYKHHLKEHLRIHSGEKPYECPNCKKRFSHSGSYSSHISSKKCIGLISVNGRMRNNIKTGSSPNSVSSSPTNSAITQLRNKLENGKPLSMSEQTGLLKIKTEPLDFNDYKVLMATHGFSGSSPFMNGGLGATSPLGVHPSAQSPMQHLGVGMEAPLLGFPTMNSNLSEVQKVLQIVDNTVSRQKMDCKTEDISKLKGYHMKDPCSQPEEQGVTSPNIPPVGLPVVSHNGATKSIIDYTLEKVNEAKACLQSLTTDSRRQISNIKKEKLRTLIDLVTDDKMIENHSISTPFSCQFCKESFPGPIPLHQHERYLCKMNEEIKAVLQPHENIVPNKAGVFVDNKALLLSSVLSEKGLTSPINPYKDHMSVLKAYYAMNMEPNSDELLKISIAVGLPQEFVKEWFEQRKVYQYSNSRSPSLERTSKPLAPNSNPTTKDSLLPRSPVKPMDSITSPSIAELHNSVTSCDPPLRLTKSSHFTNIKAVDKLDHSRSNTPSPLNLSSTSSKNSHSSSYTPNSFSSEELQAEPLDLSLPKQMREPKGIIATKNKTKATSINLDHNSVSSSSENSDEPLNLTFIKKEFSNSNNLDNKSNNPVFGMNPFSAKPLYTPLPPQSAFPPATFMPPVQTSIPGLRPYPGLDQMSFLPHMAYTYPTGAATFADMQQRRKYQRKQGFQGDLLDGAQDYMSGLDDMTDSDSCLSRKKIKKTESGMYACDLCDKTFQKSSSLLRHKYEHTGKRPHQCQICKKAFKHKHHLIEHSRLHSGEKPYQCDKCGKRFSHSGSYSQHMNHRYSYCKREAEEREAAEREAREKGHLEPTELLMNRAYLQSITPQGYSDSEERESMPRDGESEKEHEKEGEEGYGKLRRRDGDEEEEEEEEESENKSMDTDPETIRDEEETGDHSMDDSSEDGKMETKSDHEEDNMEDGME

SIP1CZF (mouse) = target: T2, SIP1CZF (mouse) (UniProt Q9R0G7); details: protein in a lysate after overexpression, protein details: (Myc)6, pCS3, COS1 extract, label: 32P
T2 sequence (looked up): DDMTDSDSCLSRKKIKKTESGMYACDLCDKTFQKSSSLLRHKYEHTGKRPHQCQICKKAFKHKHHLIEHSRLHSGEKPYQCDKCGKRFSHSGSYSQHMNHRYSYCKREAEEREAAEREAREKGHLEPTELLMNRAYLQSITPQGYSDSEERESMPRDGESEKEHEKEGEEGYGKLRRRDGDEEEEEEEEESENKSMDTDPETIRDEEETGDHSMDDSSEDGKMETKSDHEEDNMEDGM

deltaEF1 full length = target: T3, deltaEF1 full length (UniProt Q64318); details: protein in a lysate after overexpression, protein details: N-terminal (Myc)6, pCS3, COS1 extract, label: 32P
T3 sequence (looked up): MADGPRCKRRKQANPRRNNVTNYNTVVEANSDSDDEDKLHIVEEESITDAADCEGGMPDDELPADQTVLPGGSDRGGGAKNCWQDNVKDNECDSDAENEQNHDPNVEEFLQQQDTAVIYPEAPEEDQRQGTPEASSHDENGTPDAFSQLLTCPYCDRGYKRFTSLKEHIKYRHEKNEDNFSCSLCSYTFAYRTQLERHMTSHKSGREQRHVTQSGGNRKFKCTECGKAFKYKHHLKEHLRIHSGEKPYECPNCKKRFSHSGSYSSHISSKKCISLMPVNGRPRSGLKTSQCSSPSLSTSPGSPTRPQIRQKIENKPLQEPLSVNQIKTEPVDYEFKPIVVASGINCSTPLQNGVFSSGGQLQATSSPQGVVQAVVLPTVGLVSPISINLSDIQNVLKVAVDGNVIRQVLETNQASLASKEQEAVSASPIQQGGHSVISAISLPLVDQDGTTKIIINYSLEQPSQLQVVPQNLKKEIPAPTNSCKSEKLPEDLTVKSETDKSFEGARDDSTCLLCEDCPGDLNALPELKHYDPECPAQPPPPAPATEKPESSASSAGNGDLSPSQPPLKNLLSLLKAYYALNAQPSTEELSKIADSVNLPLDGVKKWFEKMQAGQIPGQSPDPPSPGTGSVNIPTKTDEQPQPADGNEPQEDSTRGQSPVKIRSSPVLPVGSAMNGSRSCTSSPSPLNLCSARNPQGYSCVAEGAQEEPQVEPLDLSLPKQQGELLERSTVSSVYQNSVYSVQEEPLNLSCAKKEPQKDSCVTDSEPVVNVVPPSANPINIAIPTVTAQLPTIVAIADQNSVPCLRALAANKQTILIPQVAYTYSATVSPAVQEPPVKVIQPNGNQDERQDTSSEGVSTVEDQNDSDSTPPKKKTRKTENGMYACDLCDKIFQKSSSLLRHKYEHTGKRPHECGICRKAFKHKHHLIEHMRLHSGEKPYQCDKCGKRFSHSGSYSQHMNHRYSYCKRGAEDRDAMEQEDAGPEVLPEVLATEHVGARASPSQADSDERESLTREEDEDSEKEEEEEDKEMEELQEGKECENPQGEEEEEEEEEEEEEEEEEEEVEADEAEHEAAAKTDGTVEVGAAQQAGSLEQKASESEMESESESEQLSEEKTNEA

SIP1NZF (mouse) = target: T4, SIP1NZF (mouse) (UniProt Q9R0G7); details: protein in a lysate after overexpression, protein details: (Myc)6, pCS3, COS1 extract, label: 32P
T4 sequence (looked up): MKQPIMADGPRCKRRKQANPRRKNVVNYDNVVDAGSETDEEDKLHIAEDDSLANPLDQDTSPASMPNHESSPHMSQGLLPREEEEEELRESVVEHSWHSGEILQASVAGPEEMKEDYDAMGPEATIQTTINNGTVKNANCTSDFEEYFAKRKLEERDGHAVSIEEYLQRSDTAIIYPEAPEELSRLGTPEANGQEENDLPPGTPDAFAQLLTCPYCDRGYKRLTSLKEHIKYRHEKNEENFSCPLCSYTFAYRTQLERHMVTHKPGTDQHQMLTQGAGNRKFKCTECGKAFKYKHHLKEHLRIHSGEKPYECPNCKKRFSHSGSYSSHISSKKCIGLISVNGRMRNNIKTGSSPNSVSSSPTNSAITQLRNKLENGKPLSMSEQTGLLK

[2] = target: SIP1 NZF3mut full size NZF3 third His to Ser (mouse) (UniProt Q9R0G7); details: protein in a lysate after overexpression, protein details: (Myc)6, label: 32P
[3] = target: SIP1 CZF3mut full size CZF3 third His to Ser (mouse) (UniProt Q9R0G7); details: protein in a lysate after overexpression, protein details: (Myc)6, label: 32P
[4] = target: SIP1 NZF4mut full size NZF4 third His to Ser (mouse) (UniProt Q9R0G7); details: protein in a lysate after overexpression, protein details: (Myc)6, label: 32P
[5] = target: SIP1 CZF2mut full size CZF2 third His to Ser (mouse) (UniProt Q9R0G7); details: protein in a lysate after overexpression, protein details: (Myc)6, label: 32P
[6] = target: T5, FLAG-SIP1 full size (mouse) (UniProt Q9R0G7); details: affinity similar to Myc-tagged SIP1; no dimer; protein in a lysate after overexpression; protein details: N-terminal FLAG, pCDNA3, COS1 extract; label: 32P
T5 sequence (looked up): T1 sequence (looked up)

[7] = target: GST-NZF3mut NZF3 third His to Ser (mouse) (UniProt Q9R0G7); details: purified recombinant protein; protein details: GST; label: 32P; variant of Xbra-WT
[8] = target: GST-CZF2mut CZF2 third His to Ser (mouse) (UniProt Q9R0G7); details: purified recombinant protein; protein details: GST; label: 32P; variant of Xbra-WT
[9] = target: GST-NZF4mut NZF4 third His to Ser (mouse) (UniProt Q9R0G7); details: purified recombinant protein; protein details: GST; label: 32P; variant of Xbra-WT
[10] = target: GST-CZF3mut CZF3 third His to Ser (mouse) (UniProt Q9R0G7); details: purified recombinant protein; protein details: GST; label: 32P; variant of Xbra-WT
[11] = also no binding in mutant combinations
[12] = also no binding when mixed with Xbra-F, variant of Xbra-WT
[13] = similar to Xbra-WT, variant of Xbra-WT

Question: Which results are given for “ATCCAGGCCACCTAAAATATAGAATGA (double strand) [Xbra-F]”?
Answer: binding result ([1]; variant of Xbra-WT): no binding; binding result (SIP1CZF (mouse); variant of Xbra-WT): no binding; binding result (deltaEF1 full length; variant of Xbra-WT): no binding; binding result (SIP1NZF (mouse); variant of Xbra-WT): no binding

Question: Does “ATCCAGGCCACCTAAAATATAGAATGATAAAGTGACCAGATGTCAGTTCT (double strand) [Xbra-D]” bind ([1]; variant of Xbra-WT)?
Answer: no binding

Question: Does “ATCCAGGCCACCTAAAATATAGAATGATAAAGTGACCAGATGTCAGTTCT (double strand) [Xbra-D]” bind (SIP1CZF (mouse); strongly affected, variant of Xbra-WT)?
Answer: binds more weakly

Question: Does “ATCCAGGCCACCTAAAATATAGAATGATAAAGTGACCAGATGTCAGTTCT (double strand) [Xbra-D]” bind (deltaEF1 full length; variant of Xbra-WT)?
Answer: no binding

Question: Does “ATCCAGGCCACCTAAAATATAGAATGATAAAGTGACCAGATGTCAGTTCT (double strand) [Xbra-D]” bind (SIP1NZF (mouse); variant of Xbra-WT)?
Answer: no binding

Question: Which results are given for “ATCCAGGCCACCTAAAATATAGAATGATAAAGTGACCAGGTGTCAGTTCT (double strand) [Xbra-WT]”?
Answer: binding result [2, 11]: no binding; binding result ([1]; strong, supershifted, both CACCT contacted by methylation interference, at least 50-fold higher affinity than SIP1CZF estimated): binds; binding result (SIP1CZF (mouse); supershifted): binds; binding result (deltaEF1 full length; strong): binds; binding result [3, 11]: no binding; binding result [4, 11]: no binding; binding result [5, 11]: no binding; binding result [6]: binds; binding result (SIP1NZF (mouse)): binds

Question: Does “GCAGGGCACACCTGGATTGCATTAGAATGAGACTCACTACCCAGTTCAGGTGTGTTGCGT (double strand) [alpha4I-WT]” bind [2]?
Answer: no binding

Question: Does “GCAGGGCACACCTGGATTGCATTAGAATGAGACTCACTACCCAGTTCAGGTGTGTTGCGT (double strand) [alpha4I-WT]” bind [1]?
Answer: binds

Question: Does “GCAGGGCACACCTGGATTGCATTAGAATGAGACTCACTACCCAGTTCAGGTGTGTTGCGT (double strand) [alpha4I-WT]” bind (deltaEF1 full length; strong, supershifted)?
Answer: binds

Question: Does “GCAGGGCACACCTGGATTGCATTAGAATGAGACTCACTACCCAGTTCAGGTGTGTTGCGT (double strand) [alpha4I-WT]” bind [3]?
Answer: no binding

Question: Does “GCAGGGCACACCTGGATTGCATTAGAATGAGACTCACTACCCAGTTCAGGTGTGTTGCGT (double strand) [alpha4I-WT]” bind [4]?
Answer: no binding

Question: Does “GCAGGGCACACCTGGATTGCATTAGAATGAGACTCACTACCCAGTTCAGGTGTGTTGCGT (double strand) [alpha4I-WT]” bind [5]?
Answer: no binding

Question: Does “TAAAGTGACCAGGTGTCAGTTCT (double strand) [Xbra-E]” bind [7]?
Answer: no binding

Question: Does “TAAAGTGACCAGGTGTCAGTTCT (double strand) [Xbra-E]” bind [8]?
Answer: no binding

Question: Does “TAAAGTGACCAGGTGTCAGTTCT (double strand) [Xbra-E]” bind [1, 12]?
Answer: no binding

Question: Does “TAAAGTGACCAGGTGTCAGTTCT (double strand) [Xbra-E]” bind (SIP1CZF (mouse); [13])?
Answer: binds

Question: Does “TAAAGTGACCAGGTGTCAGTTCT (double strand) [Xbra-E]” bind (deltaEF1 full length; [12])?
Answer: no binding

Question: Does “TAAAGTGACCAGGTGTCAGTTCT (double strand) [Xbra-E]” bind [9]?
Answer: no binding

Question: Does “TAAAGTGACCAGGTGTCAGTTCT (double strand) [Xbra-E]” bind [10]?
Answer: no binding

Question: Does “TAAAGTGACCAGGTGTCAGTTCT (double strand) [Xbra-E]” bind (SIP1NZF (mouse); [13])?
Answer: binds

For some of these results: At least one result comes from cells or an extract, where the contact may be indirect. For some of these results: Negatives hold for the conditions tested. For some of these results: Protein sequences can lack the tags named with them. For some of these results: The comparison behind a weaker result is the experiment's own reference, which may not be listed here. For some of these results: For at least one entry, the source does not settle the construct or the ends of the probe.
